# From article PMC12040169 (PLOS Biology, 2025)
# The other results are listed elsewhere or left out.
# Tested on: T1, CTL2-GFP (C. trachomatis L2/434/Bu, GFP-expressing)
# T1 construct: L2/434/Bu, GFP-expressing
# Parameters: species or system HeLa; Intracellular C. trachomatis growth in HeLa cells, bulk GFP fluorescence relative to DMSO
# Settings: bulk GFP, single well; 28.5 h, 10 µM; inhibitor
row,SMILES,% of control remaining [%]
1,CCCC(=O)NCc1ccc(-c2cc(CN(C)C)n(C)n2)cc1 [CBK282007],129.807
2,Cn1nccc1CCNC(=O)c1cccc(S(=O)(=O)N2CCCCC2)c1 [CBK304363],139.09
3,COc1ccc(-c2csc(Nc3ccc(N)cc3)n2)cc1OC [CBK074456],102.198
4,CNC(=O)NC(=O)CN1CCC(CNc2ncccc2C#N)C1 (stereo not shown) [CBK306126],123.408
5,CC(C)NC(=O)c1ccccc1Br [CBK026505],126.541
6,CC(C)C(=O)N1CCC2(C/C=C/C[C@H]3COCC[C@H]3NC(=O)CNC2=O)CC1 [CBK292157],138.208
7,Cc1ccc2c(c1)C(=O)CC1(CC3CCC1N3C(=O)C(C)C)O2 (stereo not shown) [CBK284468],167.83
8,CSCCC(=O)NC1CCCc2nc(N3CCC(CO)CC3)ncc21 (stereo not shown) [CBK306782],175.586
9,CCN(CC)S(=O)(=O)c1cc(C(=O)Nc2ccccc2C(=O)O)c(Cl)cc1Cl [CBK265731],102.056
10,COc1ccc(C(=O)NNC(=O)c2cc(OC)cc(OC)c2)cc1 [CBK262616],100
11,CCOC(=O)c1cnn(C2CCCN(Cc3ccsc3)C2)c1 (stereo not shown) [CBK305112],136.411
12,COc1ccc(CNC(=O)c2cn[nH]c2-c2ccccc2)c(OC)c1 [CBK288057],134.695
13,O=C(Cc1ccccc1)NC(Cc1ccc(Cl)cc1)C(=O)O (stereo not shown) [CBK286976],128.398
14,CS(=O)(=O)c1ccc2nc(Nc3nc4c(F)cccc4s3)sc2c1 [CBK287478],137.636
15,COc1ccc(C(NC(=O)C2CCN(C(=O)C(C)(C)C)CC2)c2cnccn2)cc1 (stereo not shown) [CBK059791],108.185
16,CC(C)C(=O)NC(c1ccco1)c1ccc2cccnc2c1O (stereo not shown) [CBK263277],95.0807
17,CCOc1ccccc1OCc1nn2c(-c3ccncc3)nnc2s1 [CBK268535],114.235
18,C=C(C)Cn1c(SC(C)C)nnc1-c1cccnc1 [CBK200073],113.278
19,CCC1CCc2c(sc(NC(=O)c3cc(-c4ccc(Cl)s4)nc4ccccc34)c2C(N)=O)C1 (stereo not shown) [CBK262646],94.7803
20,COc1ccc2sc(Nc3ccc(F)cc3)nc2c1 [CBK287641],132.503
21,CC(C)CC(=O)N1CCCC(n2c(=O)oc3ccc(Cl)cc32)C1 (stereo not shown) [CBK282891],115.779
22,CCc1oc2ccc(Cl)cc2c1C(=O)CCN1CCCCC1 [CBK009675C],100
23,O=C(CSc1nnc(-c2ccco2)o1)c1ccc2c(c1)OCCO2 [CBK266387],162.09
24,CNc1nc(N)nc(OCC(F)(F)F)n1 [CBK028082],158.811
25,Cn1ccnc1C1(O)CC2CCC(C1)N2C(=O)c1cccs1 (stereo not shown) [CBK284088],129.909
26,CCc1nnc(NS(=O)(=O)c2ccc(Nc3ccc([N+](=O)[O-])c4nonc34)cc2)s1 [CBK261442],117.213
27,CN1CCN(CC(=O)Nc2sc3c(c2C(=O)Nc2ccccc2)CCCC3)CC1 [CBK268431],110.255

row,SMILES,% of control remaining [%]
1,C#CCNC(=O)CC[C@H]1CNC(=O)[C@@H]2[C@@H](CCN2Cc2cccs2)N1C [CBK289033],165.986
2,CN1CCC(N2CCN(C(=O)NCCN3CCOCC3)CC2)CC1 [CBK155891],99.2883
3,CC(C)(C)c1ccc(C(=O)N2CC(C(=O)O)C2)cc1 [CBK008670],97.7972
4,CCN1CCN(c2nc(N)c3ccccc3n2)CC1 [CBK268561C],105.312
5,COc1cc(NC(=O)CN2C(=O)c3ccc([N+](=O)[O-])cc3C2=O)c(C(=O)O)cc1OC [CBK265109],100
6,O=C(Cc1ccsc1)Nc1snnc1-c1ccc(Cl)cc1 [CBK153243],93.252
7,CCN(CC)CCN1C(=O)CCC2(c3ccccc3)CCC(=O)C=C12 (stereo not shown) [CBK023010C],133.031
8,COc1ccccc1N1CCN(CCCCNS(=O)(=O)c2ccc(Cl)c(Cl)c2)CC1 [CBK074837],113.31
9,Cc1ccc2cc(C)c3nn(CC(=O)NC4CC4)c(=O)n3c2c1C [CBK283822],116.382
10,Cc1ccccc1N1C(=O)c2ccc(C(=O)OCC(=O)c3ccc(Cl)c([N+](=O)[O-])c3)cc2C1=O [CBK264108],100
11,O=C1CC(c2ccc(F)cc2)Cc2[nH]c(=O)c(C(=O)O)cc21 (stereo not shown) [CBK287200],149.02
12,COc1ccc(CCN(Cc2ccc(Cl)c(Cl)c2)C(=O)NCc2ccc(C#N)cc2)cc1OC [CBK158771],123.433
13,CC(C)c1nc(C(=O)NCC2CCCN(c3ncccn3)C2)cs1 (stereo not shown) [CBK304351],88.2077
14,CC(C)Cn1ncc2cc(C(=O)Nc3ccnn3C(C)C)cnc21 [CBK304938],63.9079
15,Cc1ccc(NC(=S)N2CCN(C/C=C/c3ccccc3)CC2)cc1 [CBK264574],100
16,CS(=O)(=O)N1CC2(CCN(C(=O)[C@@H]3CNC[C@H]3c3ccccc3)CC2)c2ccccc21 [CBK022572],103.172
17,Cc1ccc(N(CC(=O)N/N=C/c2ccc(Cl)cc2)S(=O)(=O)c2ccccc2)cc1 [CBK262182],95.5016
18,Cc1nc2cccnc2n1CCNC(=O)Cc1cccs1 [CBK283592],109.405
19,Cc1ncccc1COC(=O)N1Cc2ccccc2C1 [CBK200138],103.491
20,CSc1nnc(CC2CCN(C(=O)c3cc(C)c(C)cc3C)CC2)n1C [CBK307467],149.065
21,CC(=O)C1=C(O)C(=O)N(CCN2CCOCC2)C1c1cccc([N+](=O)[O-])c1 (stereo not shown) [CBK264568],100
22,COc1ccc(-c2nccnc2N[C@@H](CO)C(C)C)cc1 [CBK089040],84.951
23,CC1CCN(CC(=O)NC2CCN(C(C)c3ccccc3)CC2)CC1 (stereo not shown) [CBK284017],124.539
24,O=C(N/N=C/c1c(Cl)cccc1Cl)c1cc(Br)ccc1O [CBK262022],129.012
25,Cc1csc(NC(=O)C2CC(=O)N(C3CCCC3)C2)n1 (stereo not shown) [CBK175501],117.71
26,OC1CCN(Cc2ccc(-c3ccc(F)cc3F)o2)CC1 [CBK283200],119.925
27,Cc1nc(C(=O)N2CCn3nc(C(O)Cc4ccccc4)cc3C2)cs1 (stereo not shown) [CBK307214],149.934

row,SMILES,% of control remaining [%]
1,O=C(COc1ccccc1)N/N=C/c1ccc[nH]1 [CBK261281],116.187
2,CS(=O)(=O)N1CCC(c2nc(-c3ccc(C(F)(F)F)cc3)c3ccccn23)CC1 [CBK036006],100
3,Cc1nc2c(C)cccc2cc1C(=O)NCCCc1ccccn1 [CBK282148],140.57
4,Cc1nc2c(c(=O)[nH]1)CCN(CCC(C)c1ccccc1)C2 (stereo not shown) [CBK282387],170.244
5,O=C(COc1ccc(S(=O)(=O)N2CCCCC2)cc1)N1CCC(Cc2ccccc2)CC1 [CBK268547],129.434
6,Cc1cc2c(cc1Cl)C(=O)CC1(CCN(C(=O)C3CC(=O)OC3(C)C)CC1)O2 (stereo not shown) [CBK156514],104.018
7,COc1cc(NC(=O)N(C)C2CCN(C)C2)cc(OC)c1OC (stereo not shown) [CBK156022],164.495
8,Cn1c(=O)n(C)c2cc(NC(=O)CSc3nc(Nc4ccccc4)nc(N4CCOCC4)n3)ccc21 [CBK269041],68.1719
9,O=C1NC/C=C/CC2(CCN(c3ncccn3)CC2)C(=O)NCCOc2ccccc21 [CBK292081],178.046
10,O=C1c2ccccc2C(Nc2cccnc2)N1c1ccccn1 (stereo not shown) [CBK113239],100.825
11,COCCn1cc(C(=O)N2CCOC3CCCC32)c2ccccc21 (stereo not shown) [CBK305156],106.164
12,O=C(O)c1ccc(S(=O)(=O)Nc2ccc(OC3CCCC3)cc2)cc1 [CBK296658],113.198
13,CN(C)S(=O)(=O)Nc1ccc(Cc2ccncc2)cc1 [CBK265011],124.844
14,Cc1ccc(Cn2cnc3c(nnn3-c3ccc(C)cc3)c2=O)cc1 [CBK287502],125.609
15,Cc1ccc(-c2cn(S(=O)(=O)c3cccc4nsnc34)nc2N)cc1 [CBK268871],86.4582
16,CCOC(=O)C(C)n1nc(C)n2c(cc3sc(C)cc32)c1=O (stereo not shown) [CBK284066],136.973
17,Cn1cc(-c2nc(C(=O)N3CCN(c4ncccn4)CC3)cs2)cn1 [CBK305626],148.12
18,CN(C)S(=O)(=O)N(CC(=O)N1CCN(Cc2ccccc2)CC1)c1ccccc1 [CBK268423],126.767
19,O=C(NCc1cccs1)N1CCCN(Cc2ccc(F)cc2)CC1 [CBK306294],168.888
20,CCN(CC)S(=O)(=O)c1ccc2c(c1)CCCN2C(=O)c1ccc(C#N)cc1 [CBK295161],143.828
21,COc1ncc(-c2cncc(NCc3cccc(Cl)c3)n2)c(OC)n1 [CBK065211],240.639
22,COc1ccc(CCC(=O)N2CCCCC2c2ncc(-c3cccc(F)c3)[nH]2)cc1OC (stereo not shown) [CBK291148],121.819
23,O=c1ccnc(SCc2cccc(Cl)c2)[nH]1 [CBK288123],120.575
24,O=C(NCC1CCCO1)C1(Cc2ccc(-c3ccc(F)c(F)c3)cc2)CCOCC1 (stereo not shown) [CBK285534],113.968
25,CC1(C)Cc2nc3[nH]nc(N)c3cc2CO1 [CBK261476],121.893

# Three compounds picked at random from those above:
row,SMILES,% of control remaining [%]
15,COc1ccc(C(NC(=O)C2CCN(C(=O)C(C)(C)C)CC2)c2cnccn2)cc1 (stereo not shown) [CBK059791],108.185
23,O=C(CSc1nnc(-c2ccco2)o1)c1ccc2c(c1)OCCO2 [CBK266387],162.09
5,CC(C)NC(=O)c1ccccc1Br [CBK026505],126.541
